Laboratory results: publication PMC9563079
Results are given in words; binding and its absence hold for the method and conditions named. For some assays here: Binding seen in cells or lysates may run through a third protein. Some binding calls cover weakened binding; strength is not graded here. For some assays here: Tags and fused reporters may be left off the sequences shown. Each block holds one molecule with its values, some of them ahead of it.

The chains behind the UniProt entries cited, without tags or fusion partners.
UniProt P35222: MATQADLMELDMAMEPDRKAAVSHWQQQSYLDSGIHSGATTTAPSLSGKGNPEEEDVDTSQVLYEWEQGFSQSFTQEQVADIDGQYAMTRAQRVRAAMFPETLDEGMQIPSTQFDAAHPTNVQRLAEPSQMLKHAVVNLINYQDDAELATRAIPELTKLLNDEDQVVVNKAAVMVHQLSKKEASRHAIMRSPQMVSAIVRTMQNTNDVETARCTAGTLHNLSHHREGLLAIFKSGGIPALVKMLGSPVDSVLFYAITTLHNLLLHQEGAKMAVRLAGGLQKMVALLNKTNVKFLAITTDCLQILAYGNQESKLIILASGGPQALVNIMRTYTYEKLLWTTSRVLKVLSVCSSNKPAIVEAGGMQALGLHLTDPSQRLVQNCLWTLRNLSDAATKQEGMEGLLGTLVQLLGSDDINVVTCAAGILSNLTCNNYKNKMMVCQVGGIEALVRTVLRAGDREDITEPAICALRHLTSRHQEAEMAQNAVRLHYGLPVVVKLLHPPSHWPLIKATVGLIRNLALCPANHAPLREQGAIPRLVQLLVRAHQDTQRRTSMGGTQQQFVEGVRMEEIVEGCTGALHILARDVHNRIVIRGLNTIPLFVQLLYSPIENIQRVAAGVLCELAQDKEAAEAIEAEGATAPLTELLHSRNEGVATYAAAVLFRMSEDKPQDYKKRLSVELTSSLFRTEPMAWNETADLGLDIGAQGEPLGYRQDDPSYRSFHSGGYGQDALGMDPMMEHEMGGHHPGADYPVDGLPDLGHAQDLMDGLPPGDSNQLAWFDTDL

How the values were obtained:
[1] = target: T1, CUEDC2 (construct of the LSPR analysis and the peptide competition assay not stated) (UniProt Q9H467); experiment: peptide competition assay (PCA); details in the supplementary methods, not shown
T1 sequence: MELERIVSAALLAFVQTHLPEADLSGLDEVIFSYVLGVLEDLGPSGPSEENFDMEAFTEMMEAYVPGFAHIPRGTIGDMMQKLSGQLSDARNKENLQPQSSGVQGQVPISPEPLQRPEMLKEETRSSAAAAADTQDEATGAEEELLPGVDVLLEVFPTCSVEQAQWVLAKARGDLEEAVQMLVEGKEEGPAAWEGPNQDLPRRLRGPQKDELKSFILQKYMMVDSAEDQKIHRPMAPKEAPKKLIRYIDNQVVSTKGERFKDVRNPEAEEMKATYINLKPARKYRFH

[2] = target: T2, CUEDC2 (CUE domain containing 2), over-expressed in HEK-293FT cells (UniProt Q9H467); experiment: co-IP; exogenous Co-IP in HEK-293FT cells with over-expressed CUEDC2 or over-expressed β-catenin; antibodies against CUEDC2 or β-catenin
T2 sequence: T1 sequence

[3] = target: T3, CUEDC2, endogenous in MDA-MB-468 cells (human (endogenous in MDA-MB-468)) (UniProt Q9H467); experiment: co-IP; endogenous Co-IP in MDA-MB-468 cells with basal expression of CUEDC2 and β-catenin; antibodies against CUEDC2 or β-catenin
T3 sequence: T1 sequence

[4] = target: T4, CUE-Flag (Flag-labeled CUE domain of CUEDC2) (UniProt Q9H467); experiment: pull-down; Flag pull-down with purified recombinant Flag-labeled and His-labeled proteins, followed by immunoblotting; both purified
T4 sequence: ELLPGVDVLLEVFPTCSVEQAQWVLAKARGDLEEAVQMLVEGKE

CUEDC2-Flag = target: T5, CUEDC2-Flag (UniProt Q9H467); experiment: as above
T5 sequence: T1 sequence

[5] = target: β-catenin, over-expressed in HEK-293FT cells (UniProt P35222); experiment: co-IP; exogenous Co-IP in HEK-293FT cells with over-expressed CUEDC2 or over-expressed β-catenin; antibodies against CUEDC2 or β-catenin
[6] = target: β-catenin, endogenous in MDA-MB-468 cells (human (endogenous in MDA-MB-468)) (UniProt P35222); experiment: co-IP; endogenous Co-IP in MDA-MB-468 cells with basal expression of CUEDC2 and β-catenin; antibodies against CUEDC2 or β-catenin
β-catenin-Flag = β-catenin-Flag (UniProt P35222); experiment: pull-down; Flag pull-down with purified recombinant Flag-labeled and His-labeled proteins, followed by immunoblotting; both purified

binding [1]: binds
Molecule: β-catenin (construct of the peptide competition assay not stated) (from UniProt P35222 1-781)

binding [2]: binds
Molecule: β-catenin, endogenous in HEK-293FT cells (from UniProt P35222 1-781)

binding [3]: binds
Molecule: β-catenin, endogenous in MDA-MB-468 cells (from UniProt P35222 1-781)

binding [4]: binds | binding (CUEDC2-Flag): binds
Molecule: β-catenin-His (from UniProt P35222 1-781)

binding [5]: binds
B1: CUEDC2, endogenous in HEK-293FT cells (protein, UniProt Q9H467 1-287)
chain: T1 sequence

binding [6]: binds
B2: CUEDC2, endogenous in MDA-MB-468 cells (protein, UniProt Q9H467 1-287)
chain: T1 sequence

binding (β-catenin-Flag): binds
B3: CUEDC2-His (protein, UniProt Q9H467 1-287)
chain: T1 sequence
